This passage reports step yield results from US6015877A (President and Fellows of Harvard College, priority 1996, dated 2000).

The data set is described as follows: general procedure: solution-phase peptide synthesis; 1-ethyl-3-(3-dimethylaminopropyl)carbodiimide hydrochloride / 1-hydroxybenzotria.

As for “(3S,4S)-N-Boc-4-amino-3-hydroxy-5-(S-all-trans-farnesyl)-1-(methyl L-Val-L-Ile-L-Met)pentanoic Amide”, where the note is “coupling step”, the step yield turned out to be 70%.

Consider “(4S)-N-Boc-4-amino-2,2-difluoro-3-hydroxy-5-(S-all-trans-farnesyl)-1-(methyl L-Val-L-Ile-L-Met)pentanoic Amide”, for which the step yield (coupling step) is recorded as 19%.

For the setting “late stage modification step”, “(4S)-N-Boc-4-amino-2,2-difluoro-3-hydroxy-5-(S-all-trans-farnesyl)-1-(L-Val-L-Ile-L-Met)pentanoic Amide” came in with a step yield of 40%.
